{
  "source": "PubChem BioAssay AID1508600",
  "about": "(Functional Genomics Laboratory (NCATS/FGL), 2020)",
  "note": "In all, about 53,000 sequences went through this assay and about 3,700 (7%) were called active.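 Rule for the calls: active = gene knockdowns whose robust z-score for IL-1 alpha signal is at least 2 or at most -2, so actives lie on both sides; inactive = the rest.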 Some of the results follow.",
  "data": [
    {"experiment": "Components of the Cytosolic LPS Sensing Pathway: Gene Identification via Genome-wide siRNA Screen;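 note: robust z of the log signal after scaling to non-targeting control siRNA wells of the plate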", "details": "RAW264.7 macrophages, IL-1a HTRF, actives lie on both sides, screened at 100 nM (by protocol), cells primed 5 h with Pam3CSK4 first", "summary_of_the_method": "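Knockdown: 100 nM siRNA, 48h, RAW264.7. Stimulation: Pam3CSK4 5 h, then LipidA via TransIT-TKO 24 h. Output: supernatant IL-1a HTRF, negative-control-normalized, log robust z-score; viability by CellTiter-Glo.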", "values": [
      {"sequence": "CGUACUCUUUCUUUAAUCCTT against Umod", "z-score": "inactive: -0.622"},
      {"sequence": "GCGGACAUGAGUUUGAAUGTT against Bnipl", "z-score": "inactive: -0.858"},
      {"sequence": "GCUGUCCACUGCUUAAAUCTT against Isyna1", "z-score": "inactive: -0.982"},
      {"sequence": "GGAGAACAAGUUGUCUGUCTT against Olfr118", "z-score": "inactive: -1.16"},
      {"sequence": "GGCCAAAUGGAAUAAGAAGTT against Wdr59", "z-score": "inactive: 0.774"},
      {"sequence": "GGUCAUACAUUUGUCAUCATT against Bend7", "z-score": "inactive: -0.336"},
      {"sequence": "GGUGUUAAUCCAGUUCAAUTT against Bbs12", "z-score": "active: 2.26"},
      {"sequence": "GGAGCACAGUUUUGGUGCUTT against Olfr576", "z-score": "inactive: 1.82"},
      {"sequence": "GCCUCGGGUAGUGAAGUCUTT against Zc3h3", "z-score": "inactive: -0.18"},
      {"sequence": "GGCUGUGGUGAACCUAGACTT against Fcgr4", "z-score": "inactive: -1.87"},
      {"sequence": "GCAUUCUAAUCUCUCAUAATT against Krtap4-13", "z-score": "inactive: 1.79"},
      {"sequence": "UGUCUGGAAACCAACAAGGTT against Prb1", "z-score": "inactive: 0.244"},
      {"sequence": "CCUCAUCCAACAUACCUAUTT against Olfr665", "z-score": "inactive: -0.665"},
      {"sequence": "GGGAGCUAGAUCUUUCAUCTT against Lrtm1", "z-score": "inactive: -0.0969"},
      {"sequence": "GGGUGAAGAGAGAUGAAAATT against Krt82", "z-score": "inactive: 1.64"},
      {"sequence": "GGCUAUUCCGCAUUCUACGTT against Ldah", "z-score": "inactive: -0.576"},
      {"sequence": "GGGUCUCAUGAAGAAAUUUTT against Pcgf5", "z-score": "inactive: -0.772"},
      {"sequence": "CGUAUAACUAAUGAUGCCATT against Snap23", "z-score": "inactive: -0.189"},
      {"sequence": "GGACUAUGGGUGCACCAAUTT against Lat2", "z-score": "inactive: -1.2"},
      {"sequence": "GGAGAUUAACCCACAAACUTT against Rps6ka3", "z-score": "inactive: 1.99"},
      {"sequence": "CCAACCUGCUUGCCAAUUGTT against Rubcnl", "z-score": "inactive: -1.7"},
      {"sequence": "CGAAGUCUAGCAGAACUCUTT against Kcne1l", "z-score": "inactive: 0.521"},
      {"sequence": "GCUAAACCUACAAUUGAUUTT against Ccdc117", "z-score": "inactive: -0.834"},
      {"sequence": "GGGAUCUUUCCAGAGUUUGTT against Prp15", "z-score": "inactive: 1.05"},
      {"sequence": "GGUCACCAAGCAACACAAUTT against Fen1", "z-score": "active: 2.56"},
      {"sequence": "GGAGAAACCUAAAGACAUATT against Mocs2", "z-score": "inactive: 0.224"},
      {"sequence": "GCCAAAGUAGUUGAACCUUTT against Cibar1", "z-score": "inactive: -0.48"},
      {"sequence": "CCAAUCACCAGAGACUAACTT against Slain1", "z-score": "active: 2.81"},
      {"sequence": "CCUUGUCUGGCAACAUCGATT against Cpt1c", "z-score": "inactive: -0.33"},
      {"sequence": "CGAAGCCAAUAAAUGCAGCTT against Pmis2", "z-score": "inactive: 0.00297"}
    ]}
  ]
}
